The list shows a part of the results. Most values lie at the level of the controls, where differences are scatter.
Compound: Cc1nc(Nc2ncc(C(=O)Nc3c(C)cccc3Cl)s2)cc(N2CCN(CCO)CC2)n1 [dasatinib]
Assay: log2 fold change of tryptic peptide abundance, ligand vs vehicle (limited proteolysis) (log2 ratio); higher = more trypsin-susceptible (destabilized)
Conditions: ligand concentration: 5 uM; sample: K562 cleared lysate

By UniProt entry, the sequences of proteins in these tests, tags left out. Where a name states a change or a piece, a line headed by the entry shows the natural chain unless it says otherwise.
UniProt P63098, whole entry, looked up: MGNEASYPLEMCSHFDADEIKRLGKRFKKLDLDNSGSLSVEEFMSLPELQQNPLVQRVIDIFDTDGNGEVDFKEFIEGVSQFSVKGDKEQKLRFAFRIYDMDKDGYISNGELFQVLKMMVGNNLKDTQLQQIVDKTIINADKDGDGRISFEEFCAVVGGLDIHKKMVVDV
UniProt P60468, whole entry: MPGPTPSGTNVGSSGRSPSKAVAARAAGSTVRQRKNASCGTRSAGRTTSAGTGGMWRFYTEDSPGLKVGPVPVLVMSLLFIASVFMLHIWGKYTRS
UniProt P55822: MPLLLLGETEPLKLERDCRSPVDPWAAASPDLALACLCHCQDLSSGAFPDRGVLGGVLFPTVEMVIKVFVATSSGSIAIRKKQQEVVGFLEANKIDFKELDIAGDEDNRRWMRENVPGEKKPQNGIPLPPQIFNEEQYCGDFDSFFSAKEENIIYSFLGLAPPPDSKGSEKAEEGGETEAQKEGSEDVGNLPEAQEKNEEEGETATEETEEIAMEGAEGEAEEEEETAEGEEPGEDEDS
UniProt P62191: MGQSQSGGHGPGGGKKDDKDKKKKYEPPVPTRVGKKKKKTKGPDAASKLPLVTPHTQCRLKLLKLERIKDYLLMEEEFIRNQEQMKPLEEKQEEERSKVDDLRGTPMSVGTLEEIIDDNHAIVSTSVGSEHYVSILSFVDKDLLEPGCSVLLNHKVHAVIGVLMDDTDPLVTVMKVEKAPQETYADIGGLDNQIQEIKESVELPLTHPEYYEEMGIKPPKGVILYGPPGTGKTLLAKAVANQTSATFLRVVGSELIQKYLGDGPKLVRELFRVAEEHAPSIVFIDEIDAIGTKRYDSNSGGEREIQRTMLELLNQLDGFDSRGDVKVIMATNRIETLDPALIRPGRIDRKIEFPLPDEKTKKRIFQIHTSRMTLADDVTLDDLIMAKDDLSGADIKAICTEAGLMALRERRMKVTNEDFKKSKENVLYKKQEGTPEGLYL
UniProt P78356: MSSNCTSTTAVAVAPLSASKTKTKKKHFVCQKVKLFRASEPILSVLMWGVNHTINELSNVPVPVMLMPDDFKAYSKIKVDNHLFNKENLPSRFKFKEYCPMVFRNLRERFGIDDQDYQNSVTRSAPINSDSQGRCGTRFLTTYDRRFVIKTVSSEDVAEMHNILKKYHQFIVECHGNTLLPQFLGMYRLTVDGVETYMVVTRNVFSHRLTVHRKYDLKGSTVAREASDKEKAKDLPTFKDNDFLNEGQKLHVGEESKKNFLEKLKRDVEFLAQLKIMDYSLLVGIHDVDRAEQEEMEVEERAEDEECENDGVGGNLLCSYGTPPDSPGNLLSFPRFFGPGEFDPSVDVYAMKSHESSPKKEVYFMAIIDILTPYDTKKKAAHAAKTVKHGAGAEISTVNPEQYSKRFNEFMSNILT
UniProt P61457: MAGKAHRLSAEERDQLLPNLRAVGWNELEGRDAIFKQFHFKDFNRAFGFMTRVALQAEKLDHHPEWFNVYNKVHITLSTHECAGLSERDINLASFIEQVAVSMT
UniProt P60842, whole entry: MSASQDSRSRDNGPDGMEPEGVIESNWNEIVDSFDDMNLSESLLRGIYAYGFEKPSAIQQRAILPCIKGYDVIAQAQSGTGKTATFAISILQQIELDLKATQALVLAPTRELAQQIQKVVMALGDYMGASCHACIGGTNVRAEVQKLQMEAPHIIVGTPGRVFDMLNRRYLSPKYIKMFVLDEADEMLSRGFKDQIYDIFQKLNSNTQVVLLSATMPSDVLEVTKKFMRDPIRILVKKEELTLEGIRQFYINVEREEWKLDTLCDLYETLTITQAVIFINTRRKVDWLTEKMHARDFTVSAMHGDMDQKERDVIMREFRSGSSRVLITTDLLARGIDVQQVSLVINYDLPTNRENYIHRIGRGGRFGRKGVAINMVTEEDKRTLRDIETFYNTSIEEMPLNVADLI
UniProt P61026: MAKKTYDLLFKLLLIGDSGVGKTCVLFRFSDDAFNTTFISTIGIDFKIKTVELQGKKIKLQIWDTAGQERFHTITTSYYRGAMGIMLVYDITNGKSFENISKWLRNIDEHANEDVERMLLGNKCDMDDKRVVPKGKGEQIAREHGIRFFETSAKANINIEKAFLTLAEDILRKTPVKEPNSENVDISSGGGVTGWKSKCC
UniProt P61088: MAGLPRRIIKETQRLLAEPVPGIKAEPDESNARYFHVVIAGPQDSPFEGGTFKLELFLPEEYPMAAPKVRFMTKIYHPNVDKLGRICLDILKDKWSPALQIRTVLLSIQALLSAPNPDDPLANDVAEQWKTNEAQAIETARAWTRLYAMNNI
UniProt P61764, whole entry: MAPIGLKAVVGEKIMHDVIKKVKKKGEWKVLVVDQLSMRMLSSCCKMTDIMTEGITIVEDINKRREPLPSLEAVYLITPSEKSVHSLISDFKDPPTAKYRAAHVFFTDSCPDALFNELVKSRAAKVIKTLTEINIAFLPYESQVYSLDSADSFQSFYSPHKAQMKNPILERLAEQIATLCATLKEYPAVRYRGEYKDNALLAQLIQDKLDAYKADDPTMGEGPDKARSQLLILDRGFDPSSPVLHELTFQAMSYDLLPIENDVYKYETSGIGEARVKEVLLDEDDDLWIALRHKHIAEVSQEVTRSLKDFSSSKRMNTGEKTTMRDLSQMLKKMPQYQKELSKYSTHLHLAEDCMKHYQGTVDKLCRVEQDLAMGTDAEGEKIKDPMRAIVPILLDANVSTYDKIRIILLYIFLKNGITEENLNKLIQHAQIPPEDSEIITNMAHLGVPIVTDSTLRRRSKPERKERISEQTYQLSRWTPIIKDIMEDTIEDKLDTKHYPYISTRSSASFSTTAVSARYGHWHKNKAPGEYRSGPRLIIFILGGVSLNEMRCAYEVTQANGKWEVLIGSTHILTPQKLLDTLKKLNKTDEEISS
UniProt P58335, whole entry: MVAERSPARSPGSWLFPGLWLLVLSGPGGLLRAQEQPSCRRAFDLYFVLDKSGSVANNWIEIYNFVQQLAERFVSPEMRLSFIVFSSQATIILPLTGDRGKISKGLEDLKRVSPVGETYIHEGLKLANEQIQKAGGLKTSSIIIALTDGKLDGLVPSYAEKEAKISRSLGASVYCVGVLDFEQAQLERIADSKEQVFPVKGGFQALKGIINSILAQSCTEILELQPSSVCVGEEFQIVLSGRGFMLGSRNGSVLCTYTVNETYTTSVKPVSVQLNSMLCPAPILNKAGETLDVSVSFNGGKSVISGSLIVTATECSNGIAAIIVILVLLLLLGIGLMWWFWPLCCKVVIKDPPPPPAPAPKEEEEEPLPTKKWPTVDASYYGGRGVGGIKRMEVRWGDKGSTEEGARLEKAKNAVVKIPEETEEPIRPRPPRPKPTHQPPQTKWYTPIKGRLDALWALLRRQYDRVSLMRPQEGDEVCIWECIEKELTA
UniProt P55854, whole entry: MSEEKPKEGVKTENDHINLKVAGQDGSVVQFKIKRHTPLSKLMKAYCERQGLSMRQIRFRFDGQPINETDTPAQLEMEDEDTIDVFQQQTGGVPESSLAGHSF
UniProt P78344: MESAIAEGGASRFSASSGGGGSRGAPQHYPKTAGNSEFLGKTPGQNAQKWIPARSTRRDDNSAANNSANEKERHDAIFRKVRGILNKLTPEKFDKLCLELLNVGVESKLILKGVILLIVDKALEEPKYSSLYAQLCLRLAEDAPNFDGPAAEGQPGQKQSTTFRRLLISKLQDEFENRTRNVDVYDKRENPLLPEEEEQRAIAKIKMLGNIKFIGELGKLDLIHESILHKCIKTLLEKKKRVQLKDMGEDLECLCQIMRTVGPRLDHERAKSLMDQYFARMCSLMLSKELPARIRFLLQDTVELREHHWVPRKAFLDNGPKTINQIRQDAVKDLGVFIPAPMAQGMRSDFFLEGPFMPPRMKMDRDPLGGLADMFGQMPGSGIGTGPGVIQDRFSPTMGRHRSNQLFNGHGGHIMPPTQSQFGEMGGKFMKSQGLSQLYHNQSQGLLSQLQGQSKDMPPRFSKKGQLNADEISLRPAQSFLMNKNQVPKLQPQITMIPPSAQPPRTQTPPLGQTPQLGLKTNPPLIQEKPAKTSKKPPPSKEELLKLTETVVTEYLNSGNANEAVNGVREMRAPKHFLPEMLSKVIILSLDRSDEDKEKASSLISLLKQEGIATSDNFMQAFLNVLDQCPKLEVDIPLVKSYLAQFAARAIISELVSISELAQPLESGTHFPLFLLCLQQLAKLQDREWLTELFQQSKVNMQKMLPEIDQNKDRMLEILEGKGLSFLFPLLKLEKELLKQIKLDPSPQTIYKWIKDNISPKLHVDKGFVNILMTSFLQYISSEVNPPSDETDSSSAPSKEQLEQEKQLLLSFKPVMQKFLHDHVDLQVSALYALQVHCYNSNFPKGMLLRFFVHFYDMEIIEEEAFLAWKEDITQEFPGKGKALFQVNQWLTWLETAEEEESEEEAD
UniProt P81877: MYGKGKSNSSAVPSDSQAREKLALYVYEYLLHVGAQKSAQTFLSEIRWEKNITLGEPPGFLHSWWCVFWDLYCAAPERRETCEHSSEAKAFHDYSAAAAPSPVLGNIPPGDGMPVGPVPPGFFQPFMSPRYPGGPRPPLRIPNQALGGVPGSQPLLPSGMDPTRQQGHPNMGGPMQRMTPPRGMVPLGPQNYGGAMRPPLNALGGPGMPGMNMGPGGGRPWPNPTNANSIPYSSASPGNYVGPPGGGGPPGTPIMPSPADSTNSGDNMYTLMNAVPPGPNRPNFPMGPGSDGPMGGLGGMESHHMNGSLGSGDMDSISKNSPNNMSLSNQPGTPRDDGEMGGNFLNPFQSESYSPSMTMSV
UniProt P62072: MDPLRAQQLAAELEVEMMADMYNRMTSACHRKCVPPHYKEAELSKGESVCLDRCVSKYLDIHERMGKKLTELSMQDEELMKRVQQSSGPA
UniProt P62166, whole entry, looked up: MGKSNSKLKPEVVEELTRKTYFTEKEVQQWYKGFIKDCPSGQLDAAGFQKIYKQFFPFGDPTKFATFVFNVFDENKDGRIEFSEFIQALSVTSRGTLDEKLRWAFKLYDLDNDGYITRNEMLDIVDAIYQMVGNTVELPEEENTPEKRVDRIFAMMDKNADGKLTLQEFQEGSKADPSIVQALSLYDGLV
UniProt P56706: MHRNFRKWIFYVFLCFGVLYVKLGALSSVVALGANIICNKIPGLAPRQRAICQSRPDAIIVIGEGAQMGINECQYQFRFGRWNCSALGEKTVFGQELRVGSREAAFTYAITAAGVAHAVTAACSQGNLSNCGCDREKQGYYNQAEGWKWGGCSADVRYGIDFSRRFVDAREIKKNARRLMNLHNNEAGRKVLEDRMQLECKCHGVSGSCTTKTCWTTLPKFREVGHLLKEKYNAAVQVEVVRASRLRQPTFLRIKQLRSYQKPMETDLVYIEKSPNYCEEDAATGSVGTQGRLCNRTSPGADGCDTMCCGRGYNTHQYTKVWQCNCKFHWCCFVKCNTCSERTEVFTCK
UniProt P78312: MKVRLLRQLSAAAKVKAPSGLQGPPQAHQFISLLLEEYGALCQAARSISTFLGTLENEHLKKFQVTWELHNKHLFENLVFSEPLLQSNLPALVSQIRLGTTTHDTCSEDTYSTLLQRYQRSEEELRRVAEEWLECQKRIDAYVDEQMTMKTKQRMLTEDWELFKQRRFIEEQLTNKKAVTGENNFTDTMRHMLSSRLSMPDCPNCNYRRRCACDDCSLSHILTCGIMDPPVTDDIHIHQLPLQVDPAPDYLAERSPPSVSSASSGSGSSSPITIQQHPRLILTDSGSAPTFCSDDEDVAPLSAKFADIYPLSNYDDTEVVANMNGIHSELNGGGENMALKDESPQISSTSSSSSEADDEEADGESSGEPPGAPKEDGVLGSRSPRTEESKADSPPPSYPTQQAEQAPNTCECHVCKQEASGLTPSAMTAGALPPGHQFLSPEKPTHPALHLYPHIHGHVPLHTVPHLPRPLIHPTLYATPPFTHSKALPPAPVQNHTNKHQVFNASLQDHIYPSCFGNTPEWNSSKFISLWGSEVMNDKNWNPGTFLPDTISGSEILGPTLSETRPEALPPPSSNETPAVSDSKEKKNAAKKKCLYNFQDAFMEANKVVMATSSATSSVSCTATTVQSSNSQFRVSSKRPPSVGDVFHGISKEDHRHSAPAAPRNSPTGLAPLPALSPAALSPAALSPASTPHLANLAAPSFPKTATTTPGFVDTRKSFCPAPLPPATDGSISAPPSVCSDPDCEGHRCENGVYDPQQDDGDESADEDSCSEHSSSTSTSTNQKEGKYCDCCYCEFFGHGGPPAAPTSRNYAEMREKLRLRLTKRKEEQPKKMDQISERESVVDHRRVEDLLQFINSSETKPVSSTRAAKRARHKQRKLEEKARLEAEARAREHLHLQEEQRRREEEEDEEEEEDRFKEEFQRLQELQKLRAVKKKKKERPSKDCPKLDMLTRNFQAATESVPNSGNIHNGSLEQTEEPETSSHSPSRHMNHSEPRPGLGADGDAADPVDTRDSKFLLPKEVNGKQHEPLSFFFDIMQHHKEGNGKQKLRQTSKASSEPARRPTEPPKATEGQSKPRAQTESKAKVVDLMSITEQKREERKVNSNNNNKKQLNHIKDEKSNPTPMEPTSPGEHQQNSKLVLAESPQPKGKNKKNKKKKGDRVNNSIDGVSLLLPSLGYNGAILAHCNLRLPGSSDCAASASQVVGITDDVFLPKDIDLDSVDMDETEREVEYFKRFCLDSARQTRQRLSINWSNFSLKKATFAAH

| Target | log2 fold change |
| --- | --- |
| P62737 (peptide sequence: DSYVGDEAQSK, peptide start residue: 51) (UniProt P62736) | 0.14 |
| UniProt P63098 (peptide sequence: DTQLQQIVDK, peptide start residue: 126) | 0.514 |
| SEC61B (peptide sequence: KNASCGTRSAGR, peptide start residue: 35) (UniProt P60468) | 0.25 |
| PER3 (peptide sequence: EEEKWEAQSEGHPFITSR, peptide start residue: 903) (UniProt P56645) | 0.318 |
| SH3BGR (peptide sequence: KQQEVVGFLEANKIDFK, peptide start residue: 82) (UniProt P55822) | 0.585 |
| UniProt P62191 (peptide sequence: TKGPDAASKLPLVTPHTQCR, peptide start residue: 40) | 0.177 |
| VBP1 (peptide sequence: GEMATGNGR, peptide start residue: 11) (UniProt P61758) | 0.0897 |
| UniProt P68036 (peptide sequence: ADLAEEYSK, peptide start residue: 123) | 0.169 |
| RAD23B (peptide sequence: NQPQFQQMR, peptide start residue: 281) (UniProt P54727) | -0.0713 |
| FKBP1A (peptide sequence: RGQTCVVHYTGMLEDGKK, peptide start residue: 19) (UniProt P62942) | 0.12 |
| UniProt P61086 (peptide sequence: DQWAAAMTLR, peptide start residue: 98) | -0.472 |
| UniProt P78356 (peptide sequence: SAPINSDSQGR, peptide start residue: 124) | -0.241 |
| PEX3 (peptide sequence: NRPSNKLEIWEDLK, peptide start residue: 95) (UniProt P56589) | 0.304 |
| PCBD1 (peptide sequence: DQLLPNLR, peptide start residue: 14) (UniProt P61457) | -0.381 |
| UniProt P60866 (peptide sequence: DTGKTPVEPEVAIHRIR, peptide start residue: 5) | 0.802 |
| UniProt P61254 (peptide sequence: YVIYIERVQR, peptide start residue: 78) | -0.328 |
| UniProt P60842 (peptide sequence: DQIYDIFQK, peptide start residue: 194) | -0.195 |
| UniProt P60660 (peptide sequence: VFDKEGNGTVMGAEIR, peptide start residue: 95) | 0.186 |
| UniProt P61026 (peptide sequence: FHTITTSYYR, peptide start residue: 71) | -0.216 |

| Target | log2 fold change |
| --- | --- |
| UniProt P61088 (peptide sequence: ICLDILK, peptide start residue: 86) | -0.111 |
| BTG1 (peptide sequence: MHPFYTR, peptide start residue: 1) (UniProt P62324) | -0.0501 |
| CASP9 (peptide sequence: QMPGCFNFLR, peptide start residue: 399) (UniProt P55211) | -0.0944 |
| UniProt P61764 (peptide sequence: HYPYISTR, peptide start residue: 498) | 0.212 |
| P63268 (peptide sequence: PEYDEAGPSIVHR, peptide start residue: 361) (UniProt P63267) | 0.304 |
| UniProt P62249 (peptide sequence: VKGGGHVAQIYAIRQSISK, peptide start residue: 72) | 0.65 |
| ANTXR2 (peptide sequence: EEEEEPLPTKK, peptide start residue: 362) (UniProt P58335) | 0.0451 |
| SUMO3 (peptide sequence: TENDHINLK, peptide start residue: 12) (UniProt P55854) | -0.126 |
| EIF4G2 (peptide sequence: MCSLMLSK, peptide start residue: 281) (UniProt P78344) | -0.13 |
| RPP30 (peptide sequence: LYDVVAVFPK, peptide start residue: 99) (UniProt P78346) | 0.547 |
| UniProt P62310 (peptide sequence: NIPMLFVR, peptide start residue: 81) | -0.0616 |
| SSBP2 (peptide sequence: ETCEHSSEAK, peptide start residue: 80) (UniProt P81877) | -0.0672 |
| SH3BP2 (peptide sequence: GPGPLLPPPPPK, peptide start residue: 230) (UniProt P78314) | -0.507 |
| UniProt P62263 (peptide sequence: ADRDESSPYAAMLAAQDVAQRCK, peptide start residue: 64) | 0.115 |
| UniProt P62072 (peptide sequence: KLTELSMQDEELMK, peptide start residue: 68) | 0.121 |
| NCS1 (peptide sequence: LKPEVVEELTR, peptide start residue: 8) (UniProt P62166) | 0.00306 |
| UniProt P56706 (peptide sequence: FVDAREIKK, peptide start residue: 166) | -0.0319 |
| C4ORF8 (peptide sequence: ATEGQSKPR, peptide start residue: 1069) (UniProt P78312) | -0.561 |

Copied from the listing (3 entries):

| Target | log2 fold change |
| --- | --- |
| NCS1 (peptide sequence: LKPEVVEELTR, peptide start residue: 8) (UniProt P62166) | 0.00306 |
| UniProt P56706 (peptide sequence: FVDAREIKK, peptide start residue: 166) | -0.0319 |
| C4ORF8 (peptide sequence: ATEGQSKPR, peptide start residue: 1069) (UniProt P78312) | -0.561 |

From the supplement of paper PMC12819154, “High-throughput peptide-centric local stability assay extends protein–ligand identification to membrane proteins, tissues and bacteria” (Nature Structural & Molecular Biology, 2025)
